{"source": "PubChem BioAssay AID1347076", "about": "(National Center for Advancing Translational Sciences (NCATS), 2019)", "note": "Screen size: about 400,000 compounds; about 13,000 (3.2%) were called active. This list was built around the results that the source calls inconclusive (neither active nor inactive); the mix of calls is not that of the screen. Calls come from the whole dose curve; as a rule, active = well fitted cell-killing curve with a large enough effect; inconclusive = small, poorly fitted or top-dose-only effect, or effect the other way; inactive = flat fitted curve, though single readings scatter. Potencies of inconclusive entries are doubtful fits and often do not repeat. Potency is the fitted concentration of half-maximal effect."}
{"experiment": "qHTS assay for MDR1-selective chemotherapeutics: Primary screen using the drug-selected MDR subline cells KB-V1; note: nearly all actives have a fitted effect of over 60% in size", "conditions": "KB-V1 MDR cells viability, CellTiter-Glo, 72 h; series mostly up to 46.1 µM", "in_short": "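KB-V1 cells (P-gp-expressing MDR subline of KB-3-1) in phenol-red-free DMEM with 10% FBS were exposed to library compounds over a concentration series for 72 h at 37 degrees C. Viability read by CellTiter-Glo luminescence; concentration-effect curves fitted after normalization.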"}
{"smiles": "CCCN1CCC(=NNc2ccc(S(=O)(=O)N(CC)CC)cc2[N+](=O)[O-])CC1", "Potency": "active: 11.6 µM"}
{"smiles": "COc1cc2c(cc1OC)-c1nc3ccccc3c(=O)n1C(C)(C)C2", "Potency": "active: 9.2 µM"}
{"smiles": "CCOC(=O)N1CCN(C(=O)CN(c2ccc(C)c(C)c2)S(=O)(=O)c2ccccc2)CC1", "Potency": "active: 1.16 µM"}
{"smiles": "CCCc1nc2ccc(NC(=O)NCCC(=O)OCC)cc2c(=O)n1Cc1ccc(Cl)cc1", "Potency": "inconclusive: 14.6 µM [cytotoxic, single point]"}
{"smiles": "CCC(C)NS(=O)(=O)c1ccc(S(=O)(=O)N(CC(=O)Nc2ccccc2)CC2CCCO2)cc1", "note": "(centres undefined)", "Potency": "inconclusive: 18.4 µM [cytotoxic, single point]"}
{"smiles": "Cn1cccc1C(=O)OCC(=O)N1CCc2ccccc2C1", "Potency": "inconclusive: 20.6 µM [cytotoxic, single point]"}
{"smiles": "O=C(Nc1ccc(Cl)cc1)Nc1cccc2nsnc12", "Potency": "inactive"}
{"smiles": "CN(CC(=O)Nc1ccccc1Cl)C(=O)COC(=O)c1ccc(=O)n(Cc2ccccc2)n1", "Potency": "inconclusive: 16.4 µM [rising, partial curve]"}
{"smiles": "Cc1ccc(OCC(O)CN2CCN(c3ccccn3)CC2)c(C)c1", "note": "(centres undefined)", "Potency": "inconclusive: 10.3 µM [cytotoxic, partial curve]"}
{"smiles": "COc1ccc(CN(C)CC2CCCN(CCc3ccc(F)cc3)C2)c(OC)c1OC", "note": "(centres undefined)", "Potency": "inactive"}
{"smiles": "CN(C)c1ccc(-c2cccc3nccn23)cc1", "Potency": "inconclusive: 20.6 µM [cytotoxic, single point]"}
{"smiles": "CC(C)CCNC(=O)c1ccc(NC(=O)N2CCCCc3ccccc32)cc1", "Potency": "inconclusive: 18.4 µM [rising, single point]"}
{"smiles": "CCOC(=O)N1CCC(Nc2nc3ccccc3nc2NS(=O)(=O)c2ccc(Cl)cc2)CC1", "Potency": "active: 14.6 µM"}
{"smiles": "COc1ccc(C2c3cc(OC)c(OC)cc3CCN2S(C)(=O)=O)cc1OC", "note": "(centres undefined)", "Potency": "inconclusive: 29.1 µM [cytotoxic, single point]"}
{"smiles": "Cc1cc(Nc2nc3ccccc3nc2Cl)n(-c2ccccc2)n1", "Potency": "active: 13 µM"}
{"smiles": "O=C(Nc1ncc(Cc2ccc(SC(F)F)cc2)s1)c1ccccc1", "Potency": "active: 2.06 µM"}
{"smiles": "CCOC(=O)c1nc(NNC(=O)c2ccc([N+](=O)[O-])cc2)sc1C", "Potency": "inconclusive: 29.1 µM [cytotoxic, single point]"}
{"smiles": "COc1ccc(NC(=O)Nc2nc(C)cc(C)n2)c(OC)c1", "Potency": "inactive"}
{"smiles": "COc1ccc(N2CCN(C(=O)CNC(=O)c3cccc(Br)c3)CC2)cc1", "Potency": "inconclusive: 20.6 µM [cytotoxic, single point]"}
{"smiles": "Cc1ccc(CN2CCN(C/C=C/c3ccc(F)cc3)CC2CCO)o1", "note": "(centres undefined)", "Potency": "inactive"}
{"smiles": "COC(=O)c1cccc(NC(=O)c2onc3c2CCCC3)c1", "Potency": "inconclusive: 16.4 µM [cytotoxic, single point]"}
{"smiles": "CC1C2CC(CC1(C)C)N(C(=O)Nc1ccc3nccnc3c1)C2", "note": "(centres undefined)", "Potency": "inconclusive: 20.6 µM [cytotoxic, partial curve, poor fit]"}
{"smiles": "C[C@H](CO)N1C[C@H](C)[C@H](CN(C)C(=O)c2ccccc2F)Oc2ncc(Br)cc2C1=O", "Potency": "inconclusive: 32.6 µM [cytotoxic, single point]"}
{"smiles": "CCOc1ccc(Nc2c(S(=O)(=O)c3ccccc3)cnc3ccc(CC)cc23)cc1", "Potency": "inconclusive: 29.1 µM [cytotoxic, single point]"}
{"smiles": "CCc1cc(CN2CCOCC2)c(NC(=O)c2ccccc2)s1", "Potency": "inconclusive: 2.59 µM [cytotoxic, partial curve, poor fit]"}
{"smiles": "Cc1[nH]c2ccccc2c1C(=O)C(C)OC(=O)c1ccc([N+](=O)[O-])o1", "note": "(centres undefined)", "Potency": "inconclusive: 18.4 µM [cytotoxic, partial curve, poor fit]"}
{"smiles": "COc1cccc(N2CCN(C(=O)Cn3ncc4c3-c3ccccc3OC4)CC2)c1", "Potency": "inactive"}
{"smiles": "CCCN(CC(=O)Nc1ccc(Cl)cc1Cl)Cc1cc(=O)n2ccsc2n1", "Potency": "inconclusive: 1.84 µM [cytotoxic, full curve]"}
{"smiles": "COc1cc2ccccc2cc1C(=O)Nc1ccccc1C", "Potency": "inconclusive: 18.4 µM [cytotoxic, partial curve, poor fit]"}
{"smiles": "Cc1ccc(-n2c(Cc3cccn3C)nnc2SCC(=O)Nc2nnc(C)s2)cc1", "Potency": "inconclusive: 3.26 µM [cytotoxic, partial curve, poor fit]"}
{"smiles": "Cc1ccc(-c2csc3nc(=O)c(C)nn23)cc1", "Potency": "inconclusive: 7.31 µM [rising, partial curve]"}
{"smiles": "CSc1nnc2n(C)c3c(c(=O)n12)C1(CCCC1)Cc1ccccc1-3", "Potency": "inconclusive: 23.1 µM [cytotoxic, partial curve]"}
{"smiles": "O=C(NCc1n[nH]c(=O)c2ccccc12)C1CC(=O)N(c2ccc(Cl)cc2)C1", "note": "(centres undefined)", "Potency": "inactive"}
{"smiles": "CC(C)CC(NC(=O)C1CCC(C)CC1)C(=O)OCC(=O)c1ccc(Cl)cc1", "note": "(centres undefined)", "Potency": "inactive"}
{"smiles": "CC(=O)c1ccc(Nc2ccc(-c3ccccc3F)nn2)cc1", "Potency": "inactive"}
{"smiles": "COc1ccc(S(=O)(=O)N2CCOCC2)cc1NC(=O)COC(=O)c1[nH]c(C)c(C(C)=O)c1C", "Potency": "inactive"}
{"smiles": "COCCN1C=C(C(=O)OC)C(c2ccc3c(c2)OCO3)C(C(=O)OC)=C1", "Potency": "inconclusive: 10.3 µM [cytotoxic, partial curve, poor fit]"}
{"smiles": "COc1cc2sc3ccc(-c4ccc(CN5CCOCC5)cc4)cc3c(=O)c2cc1OC", "Potency": "active: 13 µM"}
{"smiles": "CCC(C)(C)c1ccc(OC(=O)c2cccnc2Cl)cc1", "Potency": "inconclusive: 10.3 µM [rising, partial curve, poor fit]"}
{"smiles": "O=C(NCc1ccccc1)c1ccc2c(=O)n3c(nc2c1)CCCCC3", "Potency": "inconclusive: 7.31 µM [cytotoxic, partial curve]"}
{"smiles": "Cc1ccc(C(=O)Nc2cccc(S(=O)(=O)N3CCCCC3)c2)cc1[N+](=O)[O-]", "Potency": "inconclusive: 32.6 µM [cytotoxic, single point]"}
{"smiles": "CC(C)C1CC(CCN)(c2ccccc2)CCO1", "note": "(centres undefined)", "Potency": "inactive"}
{"smiles": "Cc1cc(O)c2c(c1)CC1C3CCC4CC(=O)CCC4(C)C3CC(=O)C21C", "note": "(centres undefined)", "Potency": "inconclusive: 11.6 µM [cytotoxic, partial curve]"}
{"smiles": "CN1CCN(S(=O)(=O)c2cccc(C(=O)Nc3cc(C(F)(F)F)ccc3N3CCCCC3)c2)CC1", "Potency": "inconclusive: 13 µM [cytotoxic, partial curve, poor fit]"}
